Laboratory results as given in patent publication US8278044B2, “Method for the identification of carcinogenic compounds” (priority 2008, dated 2012).

System: HepG2 cells
Assay: Gene expression analyses with DNA microarrays (Agilent), Reactome and T-profiler
Format: cell-based, human
Settings: 3 μM BaP
Protocol: Labelling and hybridisation of RNA samples was done according to Agilent's manual for microarrays (Agilent Technologies, Breda, The Netherlands). […] For each biological experiment, two hybridizations per time point were conducted, with swapped Cy3 and Cy5 dyes.
The images (10 micron resolution; 16 bit tiff) were processed with ImaGene 6.0 to quantify spot signals (BioDiscovery Inc., Los Angeles, USA). Irregular spots were automatically flagged and excluded from data analysis. Data from ImaGene were further processed with GeneSight 4.1.6 (BioDiscovery Inc., Los Angeles, USA). For each spot, background was subtracted and flagged spots as well as spots with a net expression level below 20 in both channels were omitted. Data were log base 2 transformed and LOWESS normalized. If for a gene more probes were on the array, replicates were averaged while omitting outliers (>2 standard deviations). Raw data are available at ArrayExpress (accession numbers E-TOXM-22 and E-TOXM-23, for the first and second experiment respectively) (www.ebi.ac.uk/arrayexpress/). […]
T-profiler is used for functional annotation of pathways and processes in the complete data set of genes without pre-selecting modulated genes. […] Per experiment and time point t-values were determined for each gene set. […]

c1ccc2c(c1)cc1ccc3cccc4ccc2c1c34 [BaP, benzo[a]pyrene]
number of differentially expressed genes (3 to 60 h, 4 replicates combined with ANOVA): 2808 genes | number of gene sets identified as being modulated (T-profiler) (analysis per time point): 155 gene sets
